From patent publication US20050245563A1 (Millennium Pharmaceuticals, Inc., priority 2003, published 2005)
Some entries share one result that the patent states for a list of compounds.

These molecules were tested against T1, human Chk1 (GST-Chk1) (Homo sapiens, UniProt O14757) (assay: Chk1 FlashPlate kinase assay). Details: 8.7 nM GST-Chk1, 1 uM ATP, 33P incorporation into peptide substrate.
T1 construct: made in house; host or cells: insect cells (baculovirus, Bac-to-Bac)
T1 sequence (O14757 1-476): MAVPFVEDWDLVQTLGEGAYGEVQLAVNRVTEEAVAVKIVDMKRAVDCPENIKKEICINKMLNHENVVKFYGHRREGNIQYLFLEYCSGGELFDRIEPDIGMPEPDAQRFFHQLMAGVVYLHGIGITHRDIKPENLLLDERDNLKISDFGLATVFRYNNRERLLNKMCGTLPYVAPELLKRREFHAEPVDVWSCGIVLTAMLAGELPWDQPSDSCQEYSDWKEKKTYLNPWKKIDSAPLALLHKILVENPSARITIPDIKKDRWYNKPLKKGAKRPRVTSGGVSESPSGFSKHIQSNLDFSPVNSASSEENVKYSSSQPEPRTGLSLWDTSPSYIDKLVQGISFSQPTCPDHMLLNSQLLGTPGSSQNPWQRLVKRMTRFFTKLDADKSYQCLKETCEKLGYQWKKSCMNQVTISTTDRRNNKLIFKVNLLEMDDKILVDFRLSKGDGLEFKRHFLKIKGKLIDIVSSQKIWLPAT
Type: biochemical
Experimental: Recombinant human Chk1 was expressed as a fusion protein with glutathione S-transferase at the amino-terminus (GST-Chk1) using standard baculovirus vectors and (Bac-to-Bac®) insect cell expression system purchased from GIBCO™ Invitrogen. Recombinant protein expressed in insect cells was purified using glutathione sepharose (Amersham Biotech) using standard procedures described by the manufacturer.
Chk1 FlashPlate® Kinase Assay:
Assays (25 μL) contained 8.7 nM GST-Chk1, 10 mM MES, 0.1 mM ethylene glycol-bis(β-aminoethylether)-N,N,N′,N′-tetracetic acid (EGTA, pH 8.0), 2 mM DTT, 0.05% Tween 20, 3 uM peptide substrate (Biotin-ILSRRPSYRKILND-free acid) (SEQ ID NO: 1), 1 uM ATP, 0.4 uCi ^33P-γ-ATP (NEN), 4% DMSO. Reactions were incubated for 30 minutes at room temperature, terminated with 50 μL of 50 mM EDTA and 90 μL were transferred to streptavidin-coated FlashPlates® (NEN) and incubated for 1 hour at room temperature. Plates were washed with phosphate buffered salaine containing 0.01% Tween-20 and 10 mM sodium pyrophosphate. Plates were dried, sealed with Topseal™ (NEN) and amount of ^33P incorporated into the peptide substate measure using a Packard Topcount® NXT™ scintillation counter with standard settings.

SMILES	IC50 [µM]
Cc1[nH]nc2c1c(=O)n(CCC(=O)NCc1ccc(Cl)cc1)c1ccccc21 [Compound 199, N-(4-Chloro-benzyl)-3-(3-methyl-4-oxo-2,4-dihydro-pyrazolo[4,3-c]quinolin-5-yl)-propionamide]	< 1
Cc1[nH]nc2c1c(=O)n(CCCC(=O)N1CCNCC1)c1ccc(Br)cc21 [Compound 200, 8-Bromo-3-methyl-5-(4-oxo-4-piperazin-1-yl-butyl)-2,5-dihydro-pyrazolo[4,3-c]quinolin-4-one]	< 1
Cc1[nH]nc2c1c(=O)n(CCNC(=N)N)c1ccccc21 [Compound 201, N-[2-(3-Methyl-4-oxo-2,4-dihydro-pyrazolo[4,3-c]quinolin-5-yl)-ethyl]-guanidine]	< 1
Cc1[nH]nc2c1c(=O)n(CCCO)c1ccc(F)cc21 [Compound 204, 8-Fluoro-5-(3-hydroxy-propyl)-3-methyl-2,5-dihydro-pyrazolo[4,3-c]quinolin-4-one]	< 1
COCCc1[nH]nc2c1c(=O)n(CCCN)c1ccccc21 [Compound 207, 5-(3-Amino-propyl)-3-(2-methoxy-ethyl)-2,5-dihydro-pyrazolo[4,3-c]quinolin-4-one]	< 1
C=CCCn1c(=O)c2c(C)[nH]nc2c2cc(Cl)ccc21 [Compound 210, 5-But-3-enyl-8-chloro-3-methyl-2,5-dihydro-pyrazolo[4,3-c]quinolin-4-one]	< 1
Cc1[nH]nc2c1c(=O)n(CC(C)(C)CN)c1ccc(Cl)cc21 [Compound 211, 5-(3-Amino-2,2-dimethyl-propyl)-8-chloro-3-methyl 2,5-dihydro-pyrazolo[4,3-c]quinolin-4-one]	< 1
Cc1[nH]nc2c1c(=O)n(CCC1CCCCN1)c1ccc(Cl)cc21 (centres unmarked) [Compound 212, 8-Chloro-3-methyl-5-(2-piperidin-2-yl-ethyl)-2,5-dihydro-pyrazolo[4,3-c]quinolin-4-one]	< 1
COCCc1[nH]nc2c1c(=O)n(CCC1CCCCN1)c1ccc(Cl)cc21 (centres unmarked) [Compound 215, 8-Chloro-3-(2-methoxy-ethyl)-5-(2-piperidin-2-yl-ethyl)-2,5-dihydro-pyrazolo[4,3-c]quinolin-4-one]	< 1
CNCCCn1c(=O)c2c(C)[nH]nc2c2ccccc21 [Compound 233, 3-Methyl-5-(3-methylamino-propyl)-2,5-dihydro-pyrazolo[4,3-c]quinolin-4-one]	< 1
Cc1[nH]nc2c1c(=O)n(CCCNCC(C)C)c1ccc(Cl)cc21 [Compound 240, 8-Chloro-5-(3-isobutylamino-propyl)-3-methyl-2,5-dihydro-pyrazolo[4,3-c]quinolin-4-one]	< 1
CC(=O)NCCCn1c(=O)c2c(C)[nH]nc2c2cc(Cl)ccc21 [Compound 245, N-[3-(8-Chloro-3-methyl-4-oxo-2,4-dihydro-pyrazolo[4,3-c]quinolin-5-yl)-propyl]-acetamide]	< 1
Cc1[nH]nc2c1c(=O)n(CCC(O)CNC(C)C)c1ccc(Cl)cc21 (centres unmarked) [Compound 251, 8-Chloro-5-(3-hydroxy-4-isopropylamino-butyl)-3-methyl-2,5-dihydro-pyrazolo[4,3-c]quinolin-4-one]	< 1
CN(C)CCc1[nH]nc2c1c(=O)n(CCCN)c1ccc(Cl)cc21 [Compound 318, 5-(3-Amino-propyl)-8-chloro-3-(2-dimethyl-amino-ethyl)-2,5-dihydro-pyrazolo[4,3-c]quinolin-4-one]	< 1
C=CCn1c(=O)c2c(C)[nH]nc2c2cc(Cl)ccc21 [Compound 351, 5-Allyl-8-chloro-3-methyl-2,5-dihydro-pyrazolo[4,3-c]quinolin-4-one]	< 1
Cc1[nH]nc2c1c(=O)n(CCCN)c1ccc(NC(=O)CCN)cc21 [Compound 357, 3-Amino-N-[5-(3-amino-propyl)-3-methyl-4-oxo-4,5-dihydro-2H-pyrazolo[4,3-c]quinolin-8-yl]-propionamide]	< 1
COCCc1[nH]nc2c1c(=O)n(CCCN)c1ccc(N3CCCC3)cc21 [Compound 359, 5-(3-Amino-propyl)-3-(2-methoxy-ethyl)-8-pyrrolidin-1-yl-2,5-dihydro-pyrazolo [4,3-c]quinolin-4-one]	< 1
COCCCc1[nH]nc2c1c(=O)n(CCCN)c1ccc(Cl)cc21 [Compound 361, 5-(3-Amino-propyl)-8-chloro-3-(3-methoxy-propyl}2,5-dihydro-pyrazolo[4,3-c]quinolin-4-one]	< 1
NCCCn1c(=O)c2c(CCCCO)[nH]nc2c2cc(Cl)ccc21 [Example 313, 5-(3-Amino-propyl)-8-chloro-3-(4-hydroxy-butyl)-2,5-dihydro-pyrazolo[4,3-c]quinolin-4-one]	< 1
COCCCCc1[nH]nc2c1c(=O)n(CCCN)c1ccc(Cl)cc21 [Example 314, 5-(3-Amino-propyl)-8-chloro-3-(4-methoxy-butyl)-2,5-dihydro-pyrazolo[4,3-c]quinolin4-one]	< 1
CNCCCn1c(=O)c2c(CCCCOC)[nH]nc2c2cc(Cl)ccc21 [Example 315, 8-Chloro-3-(4-methoxy-butyl)-5-(3-methyl-amino-propyl)-2,5-dihydro-pyrazolo[4,3-c]quinolin-4-one]	< 1
Cc1[nH]nc2c1c(=O)n(CC(O)CO)c1ccc(Cl)cc21 (centres unmarked) [Example 355, 8-Chloro-5-(2,3-dihydroxy-propyl)-3-methyl-2,5-dihydro-pyrazolo[4,3-c]quinolin-4-one]	< 1
Cc1[nH]nc2c1c(=O)n(CCC(O)CO)c1ccc(Cl)cc21 (centres unmarked) [Example 356, 8-Chloro-5-(3,4-dihydroxy-butyl)-3-methyl-2,5-dihydro-pyrazolo[4,3-c]quinolin-4-one]	< 1
